Experimental data from PubChem BioAssay AID624297 (National Center for Advancing Translational Sciences (NCATS), 2012).
Values joined by “and” are separate entries in the source; they are usually repeats but may differ in a detail not shown here. Equal entries are not always repeated. In all, about 340,000 compounds went through this assay and about 6,200 (1.8%) were called active. This list was built around the results that the source calls inconclusive (neither active nor inactive); the mix of calls is not that of the screen. Calls come from the whole dose curve; as a rule, active = well fitted activation curve with a large enough effect; inconclusive = small, poorly fitted or top-dose-only effect; inactive = no such curve, though single readings can be large or run the other way. A potency beside an inconclusive call is a rough fit, not a confirmed value.

Experiment: A quantitative high throughput screen for small molecules that induce DNA re-replication in SW480 colon adenocarcinoma cells. Note: nearly all actives have a fitted effect of over 55% in size.
Details: Hoechst DNA content imaging, 48 h; series mostly up to 46.1 µM
Summary of the method: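 Treated cells incubate 48 hr (37 C, 5% CO2), are stained 40 min with Hoechst, and nuclear fluorescence is enumerated; a rise in nuclei with high DNA signal marks re-replication.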
Potency is the fitted concentration of half-maximal effect.

Structure (SMILES) | Potency
N#C/C(=C\c1ccc(Cl)c([N+](=O)[O-])c1)c1ccccn1 | inconclusive: 32.6 µM [activator, partial curve, poor fit]
COc1c(Br)cc2c(C)c(C(=O)N3CCOCC3)oc2c1Br | inconclusive: 16.4 µM [activator, partial curve, poor fit]
CC(=NNC(=S)N1CCN(C2CCCCCC2)CC1)c1ccccn1 | inconclusive: 9.2 µM [activator, partial curve, poor fit]
Cc1cc2nc(CSc3ccc(Cl)cc3)cc(=O)n2[nH]1 | inconclusive: 0.092 µM [activator, full curve, poor fit]
CN(CCC1CCCCO1)C(=O)CCc1nnc(CCc2ccccc2)o1 (stereo not given) | inconclusive: 23.1 µM [activator, single point]
CC1(C)Cc2c(ccc3ccccc23)C(c2cc3ccccc3oc2=O)=N1 | inconclusive: 29.1 µM [activator, single point]
Cc1ccc2cc(C(c3nnnn3C3CCCC3)N(Cc3ccccc3)Cc3ccco3)c(=O)[nH]c2c1 (stereo not given) | inconclusive: 20.6 µM [activator, single point]
O=C(Nc1ccc2nc3n(c(=O)c2c1)CCCC3)c1cc([N+](=O)[O-])ccc1F | active: 14.6 µM
Cc1nc(Nc2ccc(C(=O)O)cc2)nc(Nc2ccc(C(=O)O)cc2)c1[N+](=O)[O-] | inactive
CCNC(=O)CC1C(=O)N(c2ccc(F)cc2)C(=S)N1CCc1ccncc1 (stereo not given) | inactive
O=C(c1ccccc1Br)N(Cc1ccccc1)c1ccccc1 | inconclusive: 16.4 µM [activator, single point]
CCCC(=O)NC(C)c1nc(-c2ccc(C)cc2)no1 (stereo not given) | inactive
CCOC(=O)C1CCN(C2=C(NS(=O)(=O)c3ccc(Cl)cc3)C(=O)c3ccccc3C2=O)CC1 | inconclusive: 29.1 µM [activator, single point]
O=C(c1c[nH]c(C(=O)C(Cl)(Cl)Cl)c1)c1ccc(F)cc1F | inconclusive: 32.6 µM [activator, partial curve, poor fit]
Cc1cc(/C=N/NC(N)=S)c(C)n1-c1cccc(Cl)c1 | inconclusive: 25.9 µM [activator, partial curve, poor fit]
Cc1ccc2oc(C(=O)NCC(c3ccco3)N(C)C)c(C)c2c1 (stereo not given) | inactive
O=c1ccn(C2CCCO2)c(=O)[nH]1 (stereo not given) | inactive
CN(CCOc1ccc(Cl)cc1)CC(=O)Nc1ccc(OC(F)F)cc1 | inconclusive: 29.1 µM [activator, single point]
O=C(NNC(=S)Nc1ccc(Br)cc1Cl)c1ccncc1 | inactive
Clc1ccc(SCc2cc(N3CCOCC3)nc(-c3ccccn3)n2)cc1 | active: 8.2 µM
O=C(NN=C1CCN(Cc2ccccc2)CC1)c1ccccc1O | inconclusive: 20.6 µM [activator, single point]
Cc1ccc(CN2C(=O)C(=O)c3cc(C)ccc32)cc1 | inconclusive: 29.1 µM [activator, single point]

Structure (SMILES) | Potency
C/C(=N\NC(=O)c1c(C)nc2ccccn12)c1ccc(O)cc1O | inconclusive: 0.92 µM [activator, full curve, poor fit]
O=C1CN(c2nc(-c3ccccc3)c3cc(Cl)ccc3n2)c2ccccc2N1 | inconclusive: 3.66 µM [activator, full curve]
COCCn1c(SCC(=O)N2CC(=O)Nc3ccccc32)nc2ccccc2c1=O | inconclusive: 0.13 µM [activator, full curve, poor fit]
CCSc1nnc(NC(=O)Nc2cccc(C)c2)s1 | inconclusive: 1.64 µM [activator, partial curve, poor fit]
Cc1ccc(-n2nnnc2-c2cnc(N3CCCC3)nc2C(F)(F)F)cc1 | inconclusive: 29.1 µM [activator, partial curve, poor fit]
O=C(O)CCn1cc(/C=C/C(=O)c2ccc(Cl)cc2)c(-c2cccc(Br)c2)n1 | inconclusive: 29.1 µM [activator, single point]
Cc1cc(S(=O)(=O)N2CCN(c3ccccc3C)CC2)ccc1F | inactive
Cc1nn(-c2ccccc2)c(C)c1/C=N/NC(=O)c1cc(O)cc(O)c1 | inconclusive: 23.1 µM [activator, single point]
COc1cc(C(=O)Oc2ccccc2/C=N/NC(=O)c2ccc(Cl)cc2Cl)cc(OC)c1OC | inconclusive: 0.58 µM [activator, partial curve, poor fit]
COc1ccc(C(=O)O/N=C/c2c(C(F)(F)F)nn(C)c2SCc2ccccc2Cl)cc1 | inconclusive: 4.11 µM [activator, single point]
Cc1onc(-c2ccccc2)c1C(=O)Nc1ccc(S(=O)(=O)NC(C)(C)C)cc1 | inactive
COc1c(C)cc(Br)cc1C(=O)Nc1ccccc1N1CCN(C(=O)c2ccccc2)CC1 | inactive
CCN(CC(=O)Nc1cccc(OC)c1)C(=O)c1cccc(S(=O)(=O)N2CCc3ccccc32)c1 | inactive
Cn1c(CCN2CCCC2)nc2cc(NS(=O)(=O)c3ccc(Cl)cc3)ccc21 | active: 20.6 µM
OC[C@@H]1[C@@H](c2ccccc2)C(c2ccccc2)=NN1c1ccccc1 | inconclusive: 18.4 µM [activator, single point]
N#C/C(=C\c1ccccc1[N+](=O)[O-])c1nc(C2CC2)cs1 | inactive
O=C(CSCc1ccccc1)N1CCN(S(=O)(=O)c2ccc(F)cc2)CC1 | inactive
CCN(CC)S(=O)(=O)c1ccc(O)c(NC(=O)c2cc(-c3cc(OC)c(OC)c(OC)c3)nc3ccccc23)c1 | inconclusive: 20.6 µM [activator, single point]
Cc1ccc(OCCCCN2CCc3ccccc3C2)c(C)c1 | inconclusive: 29.1 µM [activator, single point]
CCCNC(=O)COC(=O)c1ccccc1C(=O)c1ccc(Cl)c([N+](=O)[O-])c1 | active: 6.51 µM
COc1cc(C(=O)OCC(=O)NC23CC4CC(CC(C4)C2)C3)cc(OC)c1OC | inactive
O=C1[C@@H]2[C@@H]3C[C@@H]([C@H]4ON=C(c5ccc(Cl)cc5)[C@@H]34)[C@@H]2C(=O)N1C1CCCCC1 | inactive

Structure (SMILES) | Potency
CCOc1ccc(N2CC(C(=O)Nc3nnc(Cc4ccc(OC)c(OC)c4)s3)CC2=O)cc1 (stereo not given) | inconclusive: 0.461 µM [activator, partial curve, poor fit]
N=c1c(C(=O)NCCc2ccccc2)cc2c(=O)n3ccccc3nc2n1CCCN1CCOCC1 | active: 5.17 µM
CC(=O)Nc1sc(C)c(C)c1C(=O)OCC(=O)NC(C)c1ccccc1 (stereo not given) | inconclusive: 3.26 µM [activator, full curve, poor fit]
Cc1cc(C)cc(Nc2cnn(C34CC5CC(CC(CC(=O)O)(C5)C3)C4)c(=O)c2Cl)c1 | inconclusive: 20.6 µM [activator, single point]
COCCN(C(=O)COC(=O)/C=C/c1ccc2ccccc2n1)c1c(N)n(Cc2ccccc2)c(=O)[nH]c1=O | inconclusive: 29.1 µM [activator, single point]
Cc1cccc2cc(CN(Cc3cccnc3)C(=O)c3ccncc3)c(=O)[nH]c12 | inconclusive: 2.91 µM [activator, partial curve, poor fit]
CC(C(=O)N=Nc1c(O)[nH]c2ccccc12)n1cnc2ccccc2c1=O (stereo not given) | inconclusive: 0.326 µM [activator, full curve, poor fit]
CC(/C=C/c1ccc(O)cc1)=N/O | inconclusive: 23.1 µM [activator, partial curve, poor fit]
CCN1/C(=C/C=C/C=C/c2sc3ccccc3[n+]2CC)Sc2ccccc21 | inactive and inconclusive: 13.3 µM [activator, single point]
O=C(Oc1cc2oc(=O)cc(-c3ccccc3)c2cc1Cl)C1CCCCC1 | inconclusive: 29.1 µM [activator, single point]
O=C1CSC(=S)N1CC1CCCO1 (stereo not given) | inconclusive: 29.1 µM [activator, single point]
COc1ccc(Oc2ccccc2C=O)cc1 | inconclusive: 18.4 µM [activator, single point]
COc1ccc(C(C)=O)cc1CSC(=N)N | inconclusive: 0.231 µM [activator, full curve, poor fit]
COc1cccc(/C=C/C(=O)OCC(=O)Nc2nnc(-c3ccccc3)o2)c1OC | inconclusive: 0.58 µM [activator, partial curve, poor fit]
COc1cc(-c2noc(C)c2C#Cc2ccsc2)cc(OC)c1OC | inconclusive: 0.461 µM [activator, full curve, poor fit]
CC(C)Cn1c(=O)n(C)c(=O)c2[nH]cnc21 | inconclusive: 31.6 µM [activator, single point]
CC1CCCC(C)N1C(=O)c1ccc(S(=O)(=O)NCc2ccco2)cc1 (stereo not given) | inactive
O=c1[nH]c(=O)n(Cc2ccccc2)c2nc(-c3ccc(C(F)(F)F)cc3)n(CCO)c12 | inconclusive: 29.1 µM [activator, partial curve, poor fit]
Cc1ccc(C(=O)NC(=S)NCC2CCCO2)cc1Br (stereo not given) | inconclusive: 13 µM [activator, partial curve, poor fit]
COc1ccc(CCNC(=O)c2c([S-])n(-c3ccc(C)cc3)c3cccc[n+]23)cc1 | inconclusive: 29.1 µM [activator, single point]
Cc1ccccc1Cn1ccc(NC(=O)c2nn(C)cc2[N+](=O)[O-])n1 | active: 10.3 µM

14 entries from above, in markdown.

| Structure (SMILES) | Potency |
| --- | --- |
| CCOc1ccc(N2CC(C(=O)Nc3nnc(Cc4ccc(OC)c(OC)c4)s3)CC2=O)cc1 (stereo not given) | inconclusive: 0.461 µM [activator, partial curve, poor fit] |
| N=c1c(C(=O)NCCc2ccccc2)cc2c(=O)n3ccccc3nc2n1CCCN1CCOCC1 | active: 5.17 µM |
| CC(=O)Nc1sc(C)c(C)c1C(=O)OCC(=O)NC(C)c1ccccc1 (stereo not given) | inconclusive: 3.26 µM [activator, full curve, poor fit] |
| Cc1cc(C)cc(Nc2cnn(C34CC5CC(CC(CC(=O)O)(C5)C3)C4)c(=O)c2Cl)c1 | inconclusive: 20.6 µM [activator, single point] |
| COCCN(C(=O)COC(=O)/C=C/c1ccc2ccccc2n1)c1c(N)n(Cc2ccccc2)c(=O)[nH]c1=O | inconclusive: 29.1 µM [activator, single point] |
| Cc1cccc2cc(CN(Cc3cccnc3)C(=O)c3ccncc3)c(=O)[nH]c12 | inconclusive: 2.91 µM [activator, partial curve, poor fit] |
| CC(C(=O)N=Nc1c(O)[nH]c2ccccc12)n1cnc2ccccc2c1=O (stereo not given) | inconclusive: 0.326 µM [activator, full curve, poor fit] |
| CC(/C=C/c1ccc(O)cc1)=N/O | inconclusive: 23.1 µM [activator, partial curve, poor fit] |
| CCN1/C(=C/C=C/C=C/c2sc3ccccc3[n+]2CC)Sc2ccccc21 | inactive and inconclusive: 13.3 µM [activator, single point] |
| O=C(Oc1cc2oc(=O)cc(-c3ccccc3)c2cc1Cl)C1CCCCC1 | inconclusive: 29.1 µM [activator, single point] |
| O=C1CSC(=S)N1CC1CCCO1 (stereo not given) | inconclusive: 29.1 µM [activator, single point] |
| COc1ccc(Oc2ccccc2C=O)cc1 | inconclusive: 18.4 µM [activator, single point] |
| COc1ccc(C(C)=O)cc1CSC(=N)N | inconclusive: 0.231 µM [activator, full curve, poor fit] |
| COc1cccc(/C=C/C(=O)OCC(=O)Nc2nnc(-c3ccccc3)o2)c1OC | inconclusive: 0.58 µM [activator, partial curve, poor fit] |
